Columns and labels:
[1] = tested on: MYC-mediated gene transcription; assay: Myc reporter assay (luciferase); format: cell-based; details: Homo sapiens, HCT-116; HCT116 Myc-Luc reporter cells, 16 hours, n=3; read-out: EC50 for inhibition of c-MYC
Procedure: (§1) Firefly luminescence was measured using the One-Step Luciferase Assay System from BPS Biosciences.
as §1

NF-kB transcription = assay: NF-κB reporter assay (luciferase); format: cell-based; details: Homo sapiens; HCT-116 NF-kappaB-luc reporter cells, TNF-alpha 2 ng/mL, 16 hours, n=3; read-out: EC50 for inhibition of NF-kB transcription
Procedure: as §1

EC50 [1]: 21.8 µM
EC50 (NF-kB transcription): 15.8 µM
SMILES: COc1ccc(CCN2CCC(Nc3nc4ccccc4n3Cc3ccc(F)cc3)CC2)cc1 [Compound 1, astemizole]

Reference: patent publication US20230295116A1, “PROTEASOME ENHANCERS AND USES THEREOF” (Board of Trustees of Michigan State University, priority 2020, published 2023)
